# Results taken from US20060275786.
# Tested on: MutS
# Assay: binding assay
# Details: 3'-C3-SH on strand I, immobilized on gold, diluted with butanethiol, purified recombinant protein
sequence,measurement,setting,value
AACTACTGGGCCATCGTGAC (double strand) [20 bp perfect-match duplex (I/II)],binding result,,binds more weakly
AACTACTGGGCCATCGTGAC / GTCACGATGGCCCAGTAGCT [20 bp single A-C mismatch duplex (I/C-II)],binding result,variant of 20 bp perfect-match duplex (I/II),binds

# For at least one entry, the source does not settle the construct or the ends of the probe. A weaker result is weaker than the reference pair of the same experiment.
